# Source: publication PMC7052193, “Nanobody-enabled monitoring of kappa opioid receptor states” (Nature Communications, 2020)
# Results are given in words; binding and its absence hold for the method and conditions named. Binding seen in cells or lysates may run through a third protein. Binding calls can cover weak binding; strength is not graded here.
# Target: ETA-KOR chimera-Rluc (human)
# Assay: FRET or BRET; kinetic BRET between ETA-KOR-Rluc and Nb6-mVenus in HEK 293T cells; 10 µM Endothelin-3 added, then the antagonist CI 1020; only the binder purified
binder,measurement,value
"CTCFTYKDKECVYYCHLDIIW (peptide, UniProt P14138 97-117) [Endothelin-3]",binding,binds
